PMC10076317, “Extended DNA threading through a dual-engine motor module of the activating signal co-integrator 1 complex” (Nature Communications, 2023)
The comparison behind a weaker result is the experiment's own reference, which may not be listed here. Where a protein sequence is shown, tags need not be part of it.

Molecular target: T1, TRIP4 1-230 (UniProt Q15650)
T1 sequence (looked up): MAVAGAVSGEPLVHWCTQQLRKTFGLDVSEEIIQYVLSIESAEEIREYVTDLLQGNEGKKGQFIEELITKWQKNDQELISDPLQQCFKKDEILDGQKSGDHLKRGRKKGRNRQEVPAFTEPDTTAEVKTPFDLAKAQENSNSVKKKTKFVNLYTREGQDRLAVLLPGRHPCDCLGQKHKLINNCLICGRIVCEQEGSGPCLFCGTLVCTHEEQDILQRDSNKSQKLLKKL
Experiment: MST
Conditions: very low affinity, EC50 n.d., dilution series up to 40 uM; MST: 20 mM HEPES-NaOH pH 7.5, 300 mM NaCl, 5% glycerol, 1 mM DTT, room temperature, 50 nM final Cy5-T48; recombinant protein; residues 1-230; protein details: N-terminal His6, TEV-cleaved; label: 5'-Cy5; single-stranded DNA

“TTTTTTTTTTTTTTTTTTTTTTTTTTTTTTTTTTTTTTTTTTTTTTTT [T48 (Cy5)]”: binds more weakly.
